Measured values from PubChem BioAssay AID2685 (National Center for Advancing Translational Sciences (NCATS), 2010).
The list shows a part of the results. These are further read-outs of the screen, such as a control signal, another cell line or another target. No call is given for them. The list favours compounds with an active or inconclusive main result. The note in brackets gives the kind of curve behind each potency; many fits are weak.

Assay: qHTS Assay for Lipid Storage Modulators in Drosophila S3 Cells;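 for cell number change: cells counted by Cell Tracker Red CMTPX staining in the red channel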
Conditions: BODIPY lipid droplet fluorescence, 18-24 h; for cell number change: measured here: cell count max response, cells fed with added oleic acid
How it was run: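 Drosophila S3 cells got compounds at several concentrations plus oleic acid (400 uM solution). Laser-scanning cytometry with 488 nm excitation read lipid droplets at 500-530 nm and cells at 575-640 nm. Percent activity was relative to 20 uM Triacsin C.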

[1] = measured here: cell number channel AC50, cells fed with added oleic acid
[2] = measured here: lipid fluorescence (Fed channel) AC50, cells fed with added oleic acid

CCCCN(C(=O)CSc1cc(C)c2ccc(OC)cc2n1)c1c(N)n(Cc2ccccc2)c(=O)[nH]c1=O
cell number change: 17.2%

O=C(c1ccccc1)C(c1ccccc1)c1ccccc1
cell number change: -48.4%
AC50 [1]: 1.46 µM [falling, partial curve, poor fit]
AC50 [2]: 0.00517 µM [falling, full curve, poor fit]

CCCCOc1ccc(C(=O)CCN2CCCCC2)cc1
cell number change: -19.2%
AC50 [2]: 5.8 µM [falling, partial curve]

COc1ccc(N/N=C(/C#N)S(=O)(=O)C(C)(C)C)cc1
AC50 [2]: 5.17 µM [rising, single point]

CCCc1ccc(OCc2ccc(C(=O)N/N=C/c3cccc([N+](=O)[O-])c3)o2)c(OC)c1
cell number change: -33.5%
AC50 [1]: 4.61 µM [falling, full curve, poor fit]

COc1ccc(NC(=O)C2CCN(c3cnccn3)CC2)cc1OC
cell number change: -2.92%
AC50 [2]: 0.13 µM [rising, full curve, poor fit]

CCC(=O)N1CCN(CCN=CC2=C(O)CC(c3cccs3)CC2=O)CC1 (configuration not stated)
cell number change: -11.8%
AC50 [2]: 0.206 µM [falling, full curve, poor fit]

O=C(N/N=C/c1ccccc1OC(F)F)NC1CCCCC1
cell number change: -12%
AC50 [2]: 0.00461 µM [rising, full curve, poor fit]

Cc1ccc(C(=O)NNC(=O)c2ccc(S(=O)(=O)N(C)c3ccccc3)cc2)cc1
cell number change: 18.1%
AC50 [2]: 4.11 µM [rising, partial curve, poor fit]

COC(=O)C1=C(C)NC(=O)C1(Nc1ccc(Cl)cn1)C(F)(F)F (configuration not stated)
cell number change: 11.6%
AC50 [1]: 1.46 µM [falling, partial curve]

CC1CCN(CCc2nc3cc(NC(=O)COc4ccccc4)ccc3n2C)CC1
cell number change: 8.02%

COc1cc(-c2nnc(-c3ccco3)o2)ccc1OCc1ccccc1
cell number change: -22.3%
AC50 [2]: 29.1 µM [falling, single point]

Cc1c(C(=O)OCC(=O)NC2CC2)oc2ccc(Br)cc12
cell number change: 15.7%

CC1CC(C)CN(CC(=O)Nc2ccc(S(N)(=O)=O)cc2)C1 (configuration not stated)
cell number change: -88.6%
AC50 [1]: 1.84 µM [falling, partial curve]

Cc1ccc(C(=O)N2c3ccccc3N(Cc3ccccc3)C(=O)C2(C)C)cc1
cell number change: 50.7%
AC50 [1]: 16.4 µM [rising, single point]
AC50 [2]: 5.8 µM [rising, single point]

CSc1ccc(C(=O)C2CCCN(C(=O)c3nn(C)c(=O)c4ccccc34)C2)cc1 (configuration not stated)
cell number change: -18.2%

Cc1cc2ncn(/N=C/c3ccc4c(c3)OCO4)c2cc1C
AC50 [2]: 20.6 µM [falling, single point]

O=C(Nc1ccc(OC(F)(F)F)cc1)c1ccc2ccccc2n1
AC50 [2]: 29.1 µM [rising, single point]

CCCCNC(=O)c1cc2cc(CC)ccc2[nH]1
cell number change: 18.1%
AC50 [2]: 5.8 µM [rising, full curve, poor fit]

Cc1cccc(C(=O)Nc2ccc(C(=O)N/N=C/c3ccc4c(c3)OCO4)cc2)c1
cell number change: 53%
AC50 [1]: 20.6 µM [rising, single point]

C#CC(CC)(CC)NC(=O)Nc1ccccc1C(=O)OC
AC50 [1]: 3.26 µM [rising, single point]

O=C1CC(SC(=NCc2ccc3c(c2)OCO3)Nc2ccccc2)C(=O)N1c1ccccc1 (configuration not stated)
cell number change: 84.6%
AC50 [1]: 5.8 µM [rising, full curve]
AC50 [2]: 2.31 µM [rising, partial curve]

O=C(N/N=C/c1c[nH]c2ccc(Br)cc12)c1ccccn1
cell number change: 6.12%
AC50 [1]: 6.51 µM [rising, single point]
AC50 [2]: 6.51 µM [rising, partial curve, poor fit]

Cc1ccc(-n2ncc3c2CCCC3NC(=O)CCc2cnn(C)c2)cc1C (configuration not stated)
cell number change: -12.1%
AC50 [2]: 25.9 µM [falling, single point]

Cc1nn(Cc2ccc(F)cc2)c2sc(C(=O)Nc3nccs3)cc12
cell number change: -15%
AC50 [2]: 2.06 µM [falling, partial curve, poor fit]

COC(C(=O)N/N=C(\C)CC(=O)Nc1ccc(Cl)cc1C)c1ccccc1 (configuration not stated)
cell number change: 8.23%
AC50 [2]: 1.3 µM [rising, partial curve]

CCC(=O)OCCNc1cc(Sc2nccn2C)c2nonc2c1[N+](=O)[O-]
cell number change: -59.3%
AC50 [1]: 3.66 µM [falling, full curve]
AC50 [2]: 5.17 µM [falling, full curve]

CCOc1cc(CNc2ncnc3nc[nH]c23)ccc1OC
cell number change: 3.88%
AC50 [2]: 3.66 µM [rising, single point]

C=CCNc1cc(C(F)(F)F)nc(-c2ccccn2)n1
cell number change: 17%
AC50 [2]: 29.1 µM [rising, single point]

CCN(CC)c1ccc(/C=N/N2CCN(Cc3ccccc3Cl)CC2)c(O)c1
cell number change: -23.4%
AC50 [2]: 18.4 µM [falling, single point]
